# Laboratory results: paper PMC8786740
# T1: BRI1-ASSOCIATED RECEPTOR KINASE 1 (BAK1) fused to GFP, from the BAK1pro:BAK1-GFP/bak1-4/iGLV6 line (Arabidopsis thaliana) (UniProt Q94F62)
# T1 sequence: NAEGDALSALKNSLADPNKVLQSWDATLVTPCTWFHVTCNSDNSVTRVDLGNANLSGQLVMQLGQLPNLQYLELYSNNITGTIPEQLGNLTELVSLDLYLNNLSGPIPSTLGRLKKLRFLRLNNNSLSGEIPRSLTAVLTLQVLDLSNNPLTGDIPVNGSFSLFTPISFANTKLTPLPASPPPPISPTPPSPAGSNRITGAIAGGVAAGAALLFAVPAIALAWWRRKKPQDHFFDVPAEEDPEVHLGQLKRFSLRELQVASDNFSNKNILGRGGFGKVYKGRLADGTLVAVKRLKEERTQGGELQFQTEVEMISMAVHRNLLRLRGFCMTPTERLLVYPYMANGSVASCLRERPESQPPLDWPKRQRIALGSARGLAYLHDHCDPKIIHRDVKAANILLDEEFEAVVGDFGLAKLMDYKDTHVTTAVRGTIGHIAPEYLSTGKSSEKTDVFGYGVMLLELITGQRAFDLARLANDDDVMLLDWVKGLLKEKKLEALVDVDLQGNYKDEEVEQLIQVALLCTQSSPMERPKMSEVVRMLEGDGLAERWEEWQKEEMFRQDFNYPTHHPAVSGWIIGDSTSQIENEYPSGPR
# Target: T1, BRI1-ASSOCIATED RECEPTOR KINASE 1 (BAK1) fused to GFP, from the BAK1pro:BAK1-GFP/bak1-4/iGLV6 line (Arabidopsis thaliana)
# Test: affinity purification with mass spectrometry; BAK1-GFP as bait on anti-GFP uMACS MicroBeads; microsomal extracts (1% Triton X-100) of formaldehyde cross-linked Arabidopsis seedlings, mock or 2 uM estradiol (GLV6 induction) for 24 h; on-bead digestion, LC-MS/MS
row,Binder,binding
1,"BAK1-… RECEPTOR-LIKE KINASE 2 (BIR2), endogenous (receptor, UniProt Q9LSI9 29-605) ADEDDIRCLRGLKASLTDPQNALKSWNFDNTTLGFLCNFVGVSCWNNQENRVINLELRDMGLSGKIPDSLQYCASLQKLDLSSNRLSGNIPTELCNWLPFLVSLDLSNNELNGEIPPDLAKCSFVNSLVLSDNRLSGQIPVQFSALGRLGRFSVANNDLSGRIPVFFSSPSYSSDDFSGNKGLCGRPLSSSCGGLSKKNLGIIIAAGVFGAAASMLLAFGIWWYYHLKWTRRRRSGLTEVGVSGLAQRLRSHKLTQVSLFQKPLVKVKLGDLMAATNNFNSENIIVSTRTGTTYKALLPDGSALAVKHLSTCKLGEREFRYEMNQLWELRHSNLAPLLGFCVVEEEKFLVYKYMSNGTLHSLLDSNRGELDWSTRFRIGLGAARGLAWLHHGCRPPILHQNICSSVILIDEDFDARIIDSGLARLMVPSDNNESSFMTGDLGEFGYVAPEYSTTMLASLKGDVYGLGVVLLELATGLKAVGGEGFKGSLVDWVKQLESSGRIAETFDENIRGKGHDEEISKFVEIALNCVSSRPKERWSMFQAYQSLKAIAEKQGYSFSEQDDDFPLIFDTQENEKV",binds
2,"PXY-CORRELATED 3 (PXC3), endogenous (receptor, UniProt O22938 24-890) QLSDEATLVAINRELGVPGWSSNGTDYCTWVGLKCGVNNSFVEMLDLSGLQLRGNVTLISDLRSLKHLDLSGNNFNGRIPTSFGNLSELEFLDLSLNRFVGAIPVEFGKLRGLRAFNISNNLLVGEIPDELKVLERLEEFQVSGNGLNGSIPHWVGNLSSLRVFTAYENDLVGEIPNGLGLVSELELLNLHSNQLEGKIPKGIFEKGKLKVLVLTQNRLTGELPEAVGICSGLSSIRIGNNELVGVIPRTIGNISGLTYFEADKNNLSGEIVAEFSKCSNLTLLNLAANGFAGTIPTELGQLINLQELILSGNSLFGEIPKSFLGSGNLNKLDLSNNRLNGTIPKELCSMPRLQYLLLDQNSIRGDIPHEIGNCVKLLQLQLGRNYLTGTIPPEIGRMRNLQIALNLSFNHLHGSLPPELGKLDKLVSLDVSNNLLTGSIPPLLKGMMSLIEVNFSNNLLNGPVPVFVPFQKSPNSSFLGNKELCGAPLSSSCGYSEDLDHLRYNHRVSYRIVLAVIGSGVAVFVSVTVVVLLFMMREKQEKAAAKNVDVEENVEDEQPAIIAGNVFLENLKQGIDLDAVVKATMKESNKLSTGTFSSVYKAVMPSGMIVSVKKLKSMDRAISHHQNKMIRELERLSKLCHDHLVRPIGFVIYEDVALLLHQHLPNGNLTQLIHESTKKPEYQPDWPMRLSIAVGAAEGLAFLHQVAIIHLDVSSSNVLLDSGYKAVLGEIEISKLLDPSRGTASISSVAGSFGYIPPEYAYTMQVTAPGNVYSYGVVLLEILTSRAPVEEEFGEGVDLVKWVHGASARGETPEQILDAKLSTVSFAWRREMLAALKVALLCTDITPAKRPKMKKVVEMLQEVKQIK",binds
3,"PEP1 RECEPTOR 1 (PEPR1), endogenous (receptor, UniProt Q9SSL9 29-1123) LNSDGLTLLSLLKHLDRVPPQVTSTWKINASEATPCNWFGITCDDSKNVASLNFTRSRVSGQLGPEIGELKSLQILDLSTNNFSGTIPSTLGNCTKLATLDLSENGFSDKIPDTLDSLKRLEVLYLYINFLTGELPESLFRIPKLQVLYLDYNNLTGPIPQSIGDAKELVELSMYANQFSGNIPESIGNSSSLQILYLHRNKLVGSLPESLNLLGNLTTLFVGNNSLQGPVRFGSPNCKNLLTLDLSYNEFEGGVPPALGNCSSLDALVIVSGNLSGTIPSSLGMLKNLTILNLSENRLSGSIPAELGNCSSLNLLKLNDNQLVGGIPSALGKLRKLESLELFENRFSGEIPIEIWKSQSLTQLLVYQNNLTGELPVEMTEMKKLKIATLFNNSFYGAIPPGLGVNSSLEEVDFIGNKLTGEIPPNLCHGRKLRILNLGSNLLHGTIPASIGHCKTIRRFILRENNLSGLLPEFSQDHSLSFLDFNSNNFEGPIPGSLGSCKNLSSINLSRNRFTGQIPPQLGNLQNLGYMNLSRNLLEGSLPAQLSNCVSLERFDVGFNSLNGSVPSNFSNWKGLTTLVLSENRFSGGIPQFLPELKKLSTLQIARNAFGGEIPSSIGLIEDLIYDLDLSGNGLTGEIPAKLGDLIKLTRLNISNNNLTGSLSVLKGLTSLLHVDVSNNQFTGPIPDNLEGQLLSEPSSFSGNPNLCIPHSFSASNNSRSALKYCKDQSKSRKSGLSTWQIVLIAVLSSLLVLVVVLALVFICLRRRKGRPEKDAYVFTQEEGPSLLLNKVLAATDNLNEKYTIGRGAHGIVYRASLGSGKVYAVKRLVFASHIRANQSMMREIDTIGKVRHRNLIKLEGFWLRKDDGLMLYRYMPKGSLYDVLHGVSPKENVLDWSARYNVALGVAHGLAYLHYDCHPPIVHRDIKPENILMDSDLEPHIGDFGLARLLDDSTVSTATVTGTTGYIAPENAFKTVRGRESDVYSYGVVLLELVTRKRAVDKSFPESTDIVSWVRSALSSSNNNVEDMVTTIVDPILVDELLDSSLREQVMQVTELALSCTQQDPAMRPTMRDAVKLLEDVKHLARSCSSDSVR",binds

# No constants are given. Whether binding was seen depends on the method and setting. In cells and extracts the contact can be indirect. These calls come from enrichment with a bait or labelling near it, and not all partners need be listed. Where a sequence is shown, tags or fusion partners need not be part of it.
